Measured values as given in publication PMC13158236.
No constants are given. Whether binding was seen depends on the method and setting. Binding seen in cells or lysates may run through a third protein. Some results given as binding are weak or reduced against the parent protein; the word gives no strength.

Tests used:
[1] = target: FLAG-ZBTB24 V43L (human) (UniProt O43167); test: co-IP; HEK293T co-transfected with Myc- and FLAG-tagged ZBTB24 plasmids, harvested after 48 h; lysis in 0.5% NP-40, 150 mM NaCl, 50 mM Tris-HCl pH 8.0; IP with anti-FLAG M2 affinity agarose for 1 h at 4°C; elution with 3xFLAG peptide; blot with anti-Myc and anti-FLAG
[2] = target: T1, full-length ZBTB24WT (human), O43167; test: as above; conditions: remark: other sources report otherwise
T1 chain: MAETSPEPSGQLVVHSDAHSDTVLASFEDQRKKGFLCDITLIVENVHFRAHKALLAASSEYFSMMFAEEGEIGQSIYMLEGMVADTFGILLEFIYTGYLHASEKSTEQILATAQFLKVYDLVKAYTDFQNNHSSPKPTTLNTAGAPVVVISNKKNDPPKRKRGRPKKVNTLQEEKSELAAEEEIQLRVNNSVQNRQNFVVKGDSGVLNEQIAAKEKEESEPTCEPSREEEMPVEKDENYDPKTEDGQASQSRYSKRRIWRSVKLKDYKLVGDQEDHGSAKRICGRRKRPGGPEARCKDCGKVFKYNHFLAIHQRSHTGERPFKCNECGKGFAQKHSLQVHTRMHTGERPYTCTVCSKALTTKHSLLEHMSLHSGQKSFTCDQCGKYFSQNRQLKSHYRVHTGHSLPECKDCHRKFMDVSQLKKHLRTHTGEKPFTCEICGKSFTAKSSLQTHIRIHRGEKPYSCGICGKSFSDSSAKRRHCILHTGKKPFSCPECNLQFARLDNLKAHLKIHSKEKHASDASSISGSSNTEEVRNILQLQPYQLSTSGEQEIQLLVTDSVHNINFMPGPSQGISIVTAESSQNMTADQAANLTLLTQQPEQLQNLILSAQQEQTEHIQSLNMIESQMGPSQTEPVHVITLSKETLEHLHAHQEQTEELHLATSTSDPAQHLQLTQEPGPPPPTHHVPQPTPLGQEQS

Molecule | binding [1] | binding [2]
full-length ZBTB24WT (from UniProt O43167-1 1-697) | binds | –
full-length ZBTB24WT, O43167-1 1-697 (protein) MAETSPEPSGQLVVHSDAHSDTVLASFEDQRKKGFLCDITLIVENVHFRAHKALLAASSEYFSMMFAEEGEIGQSIYMLEGMVADTFGILLEFIYTGYLHASEKSTEQILATAQFLKVYDLVKAYTDFQNNHSSPKPTTLNTAGAPVVVISNKKNDPPKRKRGRPKKVNTLQEEKSELAAEEEIQLRVNNSVQNRQNFVVKGDSGVLNEQIAAKEKEESEPTCEPSREEEMPVEKDENYDPKTEDGQASQSRYSKRRIWRSVKLKDYKLVGDQEDHGSAKRICGRRKRPGGPEARCKDCGKVFKYNHFLAIHQRSHTGERPFKCNECGKGFAQKHSLQVHTRMHTGERPYTCTVCSKALTTKHSLLEHMSLHSGQKSFTCDQCGKYFSQNRQLKSHYRVHTGHSLPECKDCHRKFMDVSQLKKHLRTHTGEKPFTCEICGKSFTAKSSLQTHIRIHRGEKPYSCGICGKSFSDSSAKRRHCILHTGKKPFSCPECNLQFARLDNLKAHLKIHSKEKHASDASSISGSSNTEEVRNILQLQPYQLSTSGEQEIQLLVTDSVHNINFMPGPSQGISIVTAESSQNMTADQAANLTLLTQQPEQLQNLILSAQQEQTEHIQSLNMIESQMGPSQTEPVHVITLSKETLEHLHAHQEQTEELHLATSTSDPAQHLQLTQEPGPPPPTHHVPQPTPLGQEQS | – | binds
